In patent US8084644B2, “Iminopropene compound and use thereof” (Sumitomo Chemical Company, Limited, priority 2005, dated 2011):
Some of these results come from one statement about several compounds together. Some ranges recur; such a range may be that of the whole group of compounds.

How the values were obtained:
Type in all cases: in vivo
Tetranychus urticae = assay: Test Example 8: spray test on two-spotted spider mites on kidney beans; details: 500 ppm, after 8 days
Aphis gossypii = assay: Test Example 3: spray test on cotton aphids on cucumber; details: 500 ppm, first-instar larvae on cucumber, after 6 days
Nilaparvata lugens = assay: Test Example 4: spray test on brown rice planthopper on rice; details: 500 ppm, first to second-instar larvae on rice, after 6 days
Culex pipiens pallens = assay: Test Example 7: water treatment test on common mosquito larvae; details: concentration of active ingredient 3.5 ppm in water; last-instar larvae; after one day
Plutella xylostella [1] = assay: Test Example 9: cabbage test on diamondback, second-instar; details: 500 ppm, 25° C., after five days
Bemisia argentifolii = assay: Test Example 10: spray test on silver leaf white fly on cabbage; details: 200 ppm, after seven days
Spodoptela litura [2] = assay: Test Example 13: cabbage test on common cutworm; details: 200 ppm, fourth-instar, after four days
Description: 0.1 ml of the mixture of xylene and N,N-dimethylformamide (xylene:N,N-dimethylformamide=1:1) and 0.04 ml of the mixture of xylene and Sorpol 3005X (TOHO Chemical Industry Co. LTD) (xylene:Sorpol 3005X=1:9) were added to 16 mg of the each test compound. The mixture was diluted with water as that the active ingredient concentration came to prescribed concentration. Furthermore, spreader (Dain: Takeda Pharmaceutical Co. […] The test solution was applied to a cabbage (Brassicae oleracea) in a fifth-leaf stage at a rate 20 ml per pot. After air-drying, ten fourth-instar worm of common cutworm (Spodoptela litura) was placed onto the cabbage, and the cabbage was covered with a cup having holes. After four days, the number of dead worm was examined.

Adoxophyes orana [3] = assay: Test Example 14: apple seedling test on summer fruit tortrix; details: first-instar larvae, after 7 days
Spodoptela litura [4] = assay: Test Example 1: artificial diet test on tobacco cutworm larvae; details: 500 ppm, fourth-instar larvae, after 6 days
Adoxophyes orana [5] = assay: Test Example 2: artificial diet test on summer fruit tortrix larvae; details: 500 ppm, first-instar larvae, after 7 days
Musca domestica = assay: Test Example 5: filter paper test on houseflies; details: 500 ppm, female adult houseflies, after 24 hours
Blattalla germanica = assay: Test Example 6: filter paper test on German cockroach; details: 500 ppm, male adult German cockroach, after 6 days
Plutella xylostella [6] = assay: Test Example 12: cabbage test on diamondback, third-instar; details: 200 ppm, after five days

Molecule	index number (number of survived female insect) (Tetranychus urticae)	index number (surviving rate based on untreated check) (Aphis gossypii)	index number (mortality) (Plutella xylostella [1])	index number (mortality) (Spodoptela litura [2])	index number (mortality) (Adoxophyes orana [3]; 200 ppm)	other results
1-Phenethyl 3-(2-chlorophenylthio)-N-(4-methylphenyl)thioacrylimidate [(396)]	3 (survived female insect 4 to 10)	–	–	–	–	–
1-Phenethyl 3-(3-methoxyphenylthio)-N-(4-methylphenyl)thioacrylimidate [(409)]	3 (survived female insect 4 to 10)	3 (surviving rate 1 to 10%)	–	–	–	index number (surviving rate based on untreated check) (Nilaparvata lugens): 3 (surviving rate 1 to 10%)
1-Phenethyl N-(4-methylphenyl)-3-(2-pyrimidinylthio)-thioacrylimidate [(418)]	3 (survived female insect 4 to 10)	–	–	–	–	index number (mortality) (Culex pipiens pallens): 4 (mortality 91 to 100%)
1-Phenethyl N-phenyl-3-(phenylthio)thioacrylimidate [(194)]	3 (survived female insect 4 to 10)	–	3 (mortality 80 to 99%)	–	–	index number (mortality) (Bemisia argentifolii): 3 (mortality 90 to 99%)
C(=CC(=Nc1ccccc1)SCc1ccccc1)Sc1ccccc1 [(5), Benzyl N-phenyl-3-(phenylthio)thioacrylimidate]	–	–	3 (mortality 80 to 99%)	3 (mortality 80 to 99%)	3 (mortality 80 to 99%)	–
C(=CC(=Nc1ccccc1)Sc1ccccc1)SCc1ccccc1 [(8), Phenyl N-phenyl-3-(benzylthio)thioacrylimidate]	–	3 (surviving rate 1 to 10%)	3 (mortality 80 to 99%)	3 (mortality 80 to 99%)	3 (mortality 80 to 99%)	–
COc1ccccc1N=C(C=CSc1ccccc1)Sc1ccccc1 [(12), Phenyl N-(2-methoxyphenyl)-3-(phenylthio)thioacrylimidate]	–	3 (surviving rate 1 to 10%)	–	3 (mortality 80 to 99%)	3 (mortality 80 to 99%)	–
Clc1ccc(N=C(C=CSc2ccccc2)Sc2ccccc2)cc1 [(17), Phenyl N-(4-chlorophenyl)-3-(phenylthio)thioacrylimidate]	3 (survived female insect 4 to 10)	3 (surviving rate 1 to 10%)	3 (mortality 80 to 99%)	3 (mortality 80 to 99%)	3 (mortality 80 to 99%)	–
COc1ccc(SC=CC(=Nc2ccccc2)Sc2ccc(OC)cc2)cc1 [(27), 4-Methoxyphenyl N-phenyl-3-(4-methoxyphenylthio)thioacrylimidate]	–	3 (surviving rate 1 to 10%)	3 (mortality 80 to 99%)	3 (mortality 80 to 99%)	3 (mortality 80 to 99%)	–
Cc1ccc(N=C(C=CSc2ccccc2)Sc2ccccc2)cc1 [(28), Phenyl N-(4-methylphenyl)-3-phenylthiothioacrylimidate]	3 (survived female insect 4 to 10)	–	–	–	–	–
Cc1ccc(N=C(C=CSc2ccccc2)Sc2ccccc2)cc1 [(29), Phenyl N-(4-methylphenyl)-3-phenylthiothioacrylimidate]	–	3 (surviving rate 1 to 10%)	3 (mortality 80 to 99%)	3 (mortality 80 to 99%)	–	index number (mortality) (Adoxophyes orana [3]; 50 ppm): 3 (mortality 80 to 99%)
Fc1ccc(SC=CC(=Nc2ccccc2)Oc2ccccc2)cc1 [(103), Phenyl 3-(4-fluorophenylthio)-N-phenylacrylimidate]	–	3 (surviving rate 1 to 10%)	3 (mortality 80 to 99%)	–	–	index number (mortality) (Spodoptela litura [4]): 3 (mortality 80 to 99%); index number (mortality) (Adoxophyes orana [5]): 3 (mortality 80 to 99%); index number (surviving rate based on untreated check) (Nilaparvata lugens): 3 (surviving rate 1 to 10%); index number (mortality) (Musca domestica): 3 (mortality 70 to 99%); index number (mortality) (Blattalla germanica): 4 (mortality 100%); index number (mortality) (Culex pipiens pallens): 4 (mortality 91 to 100%); index number (mortality) (Bemisia argentifolii): 3 (mortality 90 to 99%)
Clc1ccc(SC=CC(=Nc2ccccc2)Oc2ccccc2)cc1 [(117), Phenyl 3-(4-chlorophenylthio)-N-phenylacrylimidate]	–	3 (surviving rate 1 to 10%)	3 (mortality 80 to 99%)	3 (mortality 80 to 99%)	3 (mortality 80 to 99%)	index number (mortality) (Bemisia argentifolii): 3 (mortality 90 to 99%)
Clc1cccc(SC=CC(=Nc2ccccc2)Oc2ccccc2)c1 [(125), Phenyl 3-(3-chlorophenylthio)-N-phenylacrylimidate]	–	–	–	3 (mortality 80 to 99%)	3 (mortality 80 to 99%)	index number (mortality) (Bemisia argentifolii): 3 (mortality 90 to 99%)
Clc1ccccc1SC=CC(=Nc1ccccc1)Oc1ccccc1 [(126), Phenyl 3-(2-chlorophenylthio)-N-phenylacrylimidate]	–	–	–	3 (mortality 80 to 99%)	3 (mortality 80 to 99%)	–
Cc1ccc(SC=CC(=Nc2ccccc2)Sc2ccccc2)cc1 [(130), Phenyl 3-(4-methylphenylthio)-N-(phenyl)thioacrylimidate]	–	3 (surviving rate 1 to 10%)	–	–	–	index number (surviving rate based on untreated check) (Nilaparvata lugens): 3 (surviving rate 1 to 10%); index number (mortality) (Bemisia argentifolii): 3 (mortality 90 to 99%); index number (mortality) (Plutella xylostella [6]): 3 (mortality 80 to 99%); index number (mortality) (Adoxophyes orana [3]; 12.5 ppm): 3 (mortality 80 to 99%)
CC(=O)N(C=CC(=Nc1ccccc1)Oc1ccccc1)c1ccccc1 [(131), Phenyl N-phenyl-3-(N′-acetyl-N′-phenylamino)acrylimidate]	–	–	–	–	3 (mortality 80 to 99%)	–
Oc1ccc(N=C(C=COc2ccccc2)Oc2ccccc2)cc1 [(154), Phenyl N-(4-hydroxyphenyl)-3-(phenoxy)acrylimidate]	–	–	–	–	–	index number (mortality) (Adoxophyes orana [3]; 50 ppm): 3 (mortality 80 to 99%)
Cc1cccc(OC(C=CSc2ccccn2)=Nc2ccc(C)c(C)c2)c1 [(272), 3-Methylphenyl N-(3,4-dimethylphenyl)-3-(2-pyridylthio)acrylimidate]	3 (survived female insect 4 to 10)	–	–	–	–	–
Cc1ccc(N=C(C=CSc2ccccn2)SCC(C)C)cc1 [(452), Isobutyl N-(4-methylphenyl)-3-(2-pyridylthio)thioacrylimidate]	3 (survived female insect 4 to 10)	–	3 (mortality 80 to 99%)	–	–	index number (mortality) (Blattalla germanica): 4 (mortality 100%)
Cc1ccc(N=C(C=CSc2ccccc2)Sc2cccs2)cc1 [(480), 2-Thienyl N-(4-methylphenyl)-3-(phenylthio)thioacrylimidate]	3 (survived female insect 4 to 10)	–	–	–	–	index number (mortality) (Musca domestica): 3 (mortality 70 to 99%)
Cc1ccc(N=C(C=CSc2ccccc2)SCC2CCCCC2)cc1 [(481), Cyclohexylmethyl N-(4-methylphenyl)-3-(phenylthio)thioacrylimidate]	3 (survived female insect 4 to 10)	–	–	–	–	index number (surviving rate based on untreated check) (Nilaparvata lugens): 3 (surviving rate 1 to 10%); index number (mortality) (Bemisia argentifolii): 3 (mortality 90 to 99%)
CCCCCSC(C=CSc1ccc(C)cc1)=Nc1ccc(C)cc1 [(486), Pentyl N-(4-methylphenyl)-3-(4-methylphenylthio)thioacrylimidate]	3 (survived female insect 4 to 10)	–	–	–	–	–
Cc1ccc(N=C(C=CSc2ccccc2)Sc2ccoc2C)cc1 [(497), 2-Methylfurane-3-yl N-(4-methylphenyl)-3-(phenylthio)thioacrylimidate]	3 (survived female insect 4 to 10)	3 (surviving rate 1 to 10%)	–	–	–	index number (surviving rate based on untreated check) (Nilaparvata lugens): 3 (surviving rate 1 to 10%); index number (mortality) (Musca domestica): 3 (mortality 70 to 99%); index number (mortality) (Blattalla germanica): 4 (mortality 100%); index number (mortality) (Bemisia argentifolii): 3 (mortality 90 to 99%)
Cc1cccc(OC(C=CSc2nc(C)c(C)s2)=Nc2ccc(C)c(C)c2)c1 [(499), 3-Methylphenyl N-(3,4-dimethylphenyl)-3-(4,5-dimethylthiazole-2-ylthio)acrylimidate]	3 (survived female insect 4 to 10)	–	–	–	–	–
Cc1cccc(OC(C=CSc2cccs2)=Nc2ccc(C)c(C)c2)c1 [(501), 3-Methylphenyl N-(3,4-dimethylphenyl)-3-(thiophen-2-ylthio)acrylimidate]	3 (survived female insect 4 to 10)	3 (surviving rate 1 to 10%)	–	–	–	index number (mortality) (Blattalla germanica): 4 (mortality 100%); index number (mortality) (Culex pipiens pallens): 4 (mortality 91 to 100%)
